Laboratory results published in article PMC6504953, “Cauliflower mosaic virus transactivator protein (TAV) can suppress nonsense-mediated decay by targeting VARICOSE, a scaffold protein of the decapping complex” (Scientific Reports, 2019).
Results are given in words; binding and its absence hold for the method and conditions named. Tags and fused reporters may be left off the sequences shown.

Target: C-terminal domain of TAV fused to the Gal4 binding domain (Cauliflower mosaic virus (strain CM1841))
Assay: two-hybrid; Gal4 AD and BD fusions co-transformed in yeast strain AH109; selection on medium lacking Leu, Trp and Ade; equal OD600 units and 1/10 and 1/100 dilutions spotted, 2 days; self-interaction of TAV: two fusions of entire TAV

B1: VCS-C2 domain (aa 1181-1341) fused to the Gal4 activation domain (domain or fragment, UniProt Q9LTT8 1181-1341)
chain: NSGGSNSLVTQLSGGPLGALLEKVEAPMDPTTELSRLISERKYEESFTSALQRSDVSIVSWLCSQVDLRGLLAMNPLPLSQGVLLSLLQQLACDISKDTSRKLAWMTDVVAAINPSDQMIAVHARPIFEQVYQILHHHRNAPGSDVSAIRLIMHVINSMLM
binding: no binding
